# Source: the supplement of paper PMC6411743
# Chains of the proteins cited; added tags and fusions are not shown. Lines headed by an entry give the natural chain unless they say otherwise; changes in a name come on top.
# UniProt Q7LBR1: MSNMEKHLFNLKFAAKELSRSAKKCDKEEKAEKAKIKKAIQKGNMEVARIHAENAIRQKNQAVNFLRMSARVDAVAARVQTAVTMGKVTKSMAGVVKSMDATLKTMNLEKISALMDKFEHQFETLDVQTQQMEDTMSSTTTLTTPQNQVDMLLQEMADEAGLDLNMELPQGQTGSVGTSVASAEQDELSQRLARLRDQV
# UniProt Q68CZ6: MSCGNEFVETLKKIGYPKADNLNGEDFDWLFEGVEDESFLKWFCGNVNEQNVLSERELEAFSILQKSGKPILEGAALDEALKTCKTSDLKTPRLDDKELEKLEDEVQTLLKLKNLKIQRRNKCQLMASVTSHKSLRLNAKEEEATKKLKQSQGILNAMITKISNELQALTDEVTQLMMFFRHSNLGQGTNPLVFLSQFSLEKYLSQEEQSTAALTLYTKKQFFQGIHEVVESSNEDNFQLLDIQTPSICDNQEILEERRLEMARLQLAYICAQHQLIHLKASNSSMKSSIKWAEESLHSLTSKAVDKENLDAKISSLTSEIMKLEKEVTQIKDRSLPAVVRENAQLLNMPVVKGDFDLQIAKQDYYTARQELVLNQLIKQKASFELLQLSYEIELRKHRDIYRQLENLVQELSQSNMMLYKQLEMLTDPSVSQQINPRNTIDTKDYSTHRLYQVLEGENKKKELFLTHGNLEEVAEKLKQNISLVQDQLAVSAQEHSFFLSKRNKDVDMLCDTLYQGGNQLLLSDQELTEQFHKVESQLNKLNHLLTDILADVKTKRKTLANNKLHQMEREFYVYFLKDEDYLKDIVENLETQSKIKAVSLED
# UniProt Q6P2H3: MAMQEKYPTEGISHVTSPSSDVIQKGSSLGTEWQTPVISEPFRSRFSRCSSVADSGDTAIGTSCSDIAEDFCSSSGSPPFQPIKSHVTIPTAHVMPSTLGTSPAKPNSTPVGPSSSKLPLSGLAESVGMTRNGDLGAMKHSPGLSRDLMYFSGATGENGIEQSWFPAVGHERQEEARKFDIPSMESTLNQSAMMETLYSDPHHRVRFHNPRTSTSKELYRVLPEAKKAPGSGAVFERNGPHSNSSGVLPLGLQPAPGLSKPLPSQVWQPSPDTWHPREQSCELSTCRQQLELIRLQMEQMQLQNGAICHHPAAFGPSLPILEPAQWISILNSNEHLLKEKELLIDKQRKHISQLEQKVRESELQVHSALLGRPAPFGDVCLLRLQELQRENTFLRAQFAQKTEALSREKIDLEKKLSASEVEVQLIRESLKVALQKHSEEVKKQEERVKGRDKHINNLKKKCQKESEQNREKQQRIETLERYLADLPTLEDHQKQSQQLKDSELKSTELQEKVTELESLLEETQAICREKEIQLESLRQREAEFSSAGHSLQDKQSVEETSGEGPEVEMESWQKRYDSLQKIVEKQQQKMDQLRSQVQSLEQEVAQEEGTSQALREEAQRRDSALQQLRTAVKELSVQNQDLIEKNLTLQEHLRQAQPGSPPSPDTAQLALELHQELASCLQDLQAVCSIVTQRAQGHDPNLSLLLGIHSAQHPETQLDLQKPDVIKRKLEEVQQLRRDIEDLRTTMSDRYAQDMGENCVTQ
# UniProt Q7Z5G4, whole entry: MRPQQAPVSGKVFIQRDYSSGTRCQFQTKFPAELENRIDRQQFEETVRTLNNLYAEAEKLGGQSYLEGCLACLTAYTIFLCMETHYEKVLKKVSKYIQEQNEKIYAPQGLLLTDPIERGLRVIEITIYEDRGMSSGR
# UniProt Q68D91: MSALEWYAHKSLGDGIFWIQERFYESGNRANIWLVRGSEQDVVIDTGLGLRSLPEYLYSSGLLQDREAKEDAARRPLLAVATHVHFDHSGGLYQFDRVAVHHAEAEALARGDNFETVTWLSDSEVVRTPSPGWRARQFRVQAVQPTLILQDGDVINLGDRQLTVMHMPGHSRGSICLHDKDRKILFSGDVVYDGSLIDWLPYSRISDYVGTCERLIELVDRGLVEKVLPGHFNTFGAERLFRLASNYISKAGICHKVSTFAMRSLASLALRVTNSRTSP
# UniProt Q7Z434: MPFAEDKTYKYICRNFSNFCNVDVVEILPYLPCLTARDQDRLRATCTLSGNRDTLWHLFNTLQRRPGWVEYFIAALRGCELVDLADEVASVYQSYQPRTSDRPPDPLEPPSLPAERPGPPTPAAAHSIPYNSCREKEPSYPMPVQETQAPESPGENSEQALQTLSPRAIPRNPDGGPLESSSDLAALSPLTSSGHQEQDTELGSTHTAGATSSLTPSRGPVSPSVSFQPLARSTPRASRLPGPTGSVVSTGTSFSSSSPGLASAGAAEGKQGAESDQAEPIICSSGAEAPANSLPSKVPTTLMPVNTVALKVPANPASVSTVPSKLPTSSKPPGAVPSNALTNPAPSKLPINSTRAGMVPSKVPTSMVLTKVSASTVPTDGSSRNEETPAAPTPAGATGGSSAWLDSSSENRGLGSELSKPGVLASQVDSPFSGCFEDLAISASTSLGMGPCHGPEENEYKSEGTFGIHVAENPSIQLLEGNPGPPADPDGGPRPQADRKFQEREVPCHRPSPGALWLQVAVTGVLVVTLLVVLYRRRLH
# UniProt Q6GMV3: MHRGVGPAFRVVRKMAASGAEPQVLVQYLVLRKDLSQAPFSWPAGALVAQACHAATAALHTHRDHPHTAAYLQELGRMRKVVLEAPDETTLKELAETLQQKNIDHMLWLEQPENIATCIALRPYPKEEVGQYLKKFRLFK
# UniProt Q8IWE5: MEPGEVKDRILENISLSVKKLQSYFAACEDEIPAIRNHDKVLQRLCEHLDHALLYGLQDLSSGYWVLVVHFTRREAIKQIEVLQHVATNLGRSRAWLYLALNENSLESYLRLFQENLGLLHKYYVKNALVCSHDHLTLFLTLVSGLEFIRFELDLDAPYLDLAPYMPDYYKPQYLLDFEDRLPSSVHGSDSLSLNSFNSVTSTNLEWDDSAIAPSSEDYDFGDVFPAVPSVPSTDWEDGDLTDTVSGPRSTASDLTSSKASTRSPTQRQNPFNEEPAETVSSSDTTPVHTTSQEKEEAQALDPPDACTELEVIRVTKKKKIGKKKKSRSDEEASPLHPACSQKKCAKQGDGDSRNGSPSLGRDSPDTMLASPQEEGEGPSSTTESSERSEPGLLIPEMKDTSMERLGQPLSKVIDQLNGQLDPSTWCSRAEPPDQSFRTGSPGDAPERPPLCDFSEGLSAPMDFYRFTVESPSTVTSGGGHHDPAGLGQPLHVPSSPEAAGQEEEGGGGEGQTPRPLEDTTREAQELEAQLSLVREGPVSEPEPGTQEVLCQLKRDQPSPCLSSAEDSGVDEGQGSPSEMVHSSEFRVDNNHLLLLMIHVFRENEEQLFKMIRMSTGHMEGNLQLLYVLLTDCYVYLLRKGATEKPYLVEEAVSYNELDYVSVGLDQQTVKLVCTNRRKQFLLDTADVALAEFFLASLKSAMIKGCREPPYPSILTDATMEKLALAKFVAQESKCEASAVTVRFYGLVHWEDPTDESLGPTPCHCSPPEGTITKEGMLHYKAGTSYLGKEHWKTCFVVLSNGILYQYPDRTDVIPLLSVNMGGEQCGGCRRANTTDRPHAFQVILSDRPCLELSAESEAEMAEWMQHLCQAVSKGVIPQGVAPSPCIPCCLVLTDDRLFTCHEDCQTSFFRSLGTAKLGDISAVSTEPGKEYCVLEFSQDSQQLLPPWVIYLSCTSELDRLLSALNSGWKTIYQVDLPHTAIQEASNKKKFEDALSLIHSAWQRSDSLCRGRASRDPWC
# UniProt Q7Z3U7: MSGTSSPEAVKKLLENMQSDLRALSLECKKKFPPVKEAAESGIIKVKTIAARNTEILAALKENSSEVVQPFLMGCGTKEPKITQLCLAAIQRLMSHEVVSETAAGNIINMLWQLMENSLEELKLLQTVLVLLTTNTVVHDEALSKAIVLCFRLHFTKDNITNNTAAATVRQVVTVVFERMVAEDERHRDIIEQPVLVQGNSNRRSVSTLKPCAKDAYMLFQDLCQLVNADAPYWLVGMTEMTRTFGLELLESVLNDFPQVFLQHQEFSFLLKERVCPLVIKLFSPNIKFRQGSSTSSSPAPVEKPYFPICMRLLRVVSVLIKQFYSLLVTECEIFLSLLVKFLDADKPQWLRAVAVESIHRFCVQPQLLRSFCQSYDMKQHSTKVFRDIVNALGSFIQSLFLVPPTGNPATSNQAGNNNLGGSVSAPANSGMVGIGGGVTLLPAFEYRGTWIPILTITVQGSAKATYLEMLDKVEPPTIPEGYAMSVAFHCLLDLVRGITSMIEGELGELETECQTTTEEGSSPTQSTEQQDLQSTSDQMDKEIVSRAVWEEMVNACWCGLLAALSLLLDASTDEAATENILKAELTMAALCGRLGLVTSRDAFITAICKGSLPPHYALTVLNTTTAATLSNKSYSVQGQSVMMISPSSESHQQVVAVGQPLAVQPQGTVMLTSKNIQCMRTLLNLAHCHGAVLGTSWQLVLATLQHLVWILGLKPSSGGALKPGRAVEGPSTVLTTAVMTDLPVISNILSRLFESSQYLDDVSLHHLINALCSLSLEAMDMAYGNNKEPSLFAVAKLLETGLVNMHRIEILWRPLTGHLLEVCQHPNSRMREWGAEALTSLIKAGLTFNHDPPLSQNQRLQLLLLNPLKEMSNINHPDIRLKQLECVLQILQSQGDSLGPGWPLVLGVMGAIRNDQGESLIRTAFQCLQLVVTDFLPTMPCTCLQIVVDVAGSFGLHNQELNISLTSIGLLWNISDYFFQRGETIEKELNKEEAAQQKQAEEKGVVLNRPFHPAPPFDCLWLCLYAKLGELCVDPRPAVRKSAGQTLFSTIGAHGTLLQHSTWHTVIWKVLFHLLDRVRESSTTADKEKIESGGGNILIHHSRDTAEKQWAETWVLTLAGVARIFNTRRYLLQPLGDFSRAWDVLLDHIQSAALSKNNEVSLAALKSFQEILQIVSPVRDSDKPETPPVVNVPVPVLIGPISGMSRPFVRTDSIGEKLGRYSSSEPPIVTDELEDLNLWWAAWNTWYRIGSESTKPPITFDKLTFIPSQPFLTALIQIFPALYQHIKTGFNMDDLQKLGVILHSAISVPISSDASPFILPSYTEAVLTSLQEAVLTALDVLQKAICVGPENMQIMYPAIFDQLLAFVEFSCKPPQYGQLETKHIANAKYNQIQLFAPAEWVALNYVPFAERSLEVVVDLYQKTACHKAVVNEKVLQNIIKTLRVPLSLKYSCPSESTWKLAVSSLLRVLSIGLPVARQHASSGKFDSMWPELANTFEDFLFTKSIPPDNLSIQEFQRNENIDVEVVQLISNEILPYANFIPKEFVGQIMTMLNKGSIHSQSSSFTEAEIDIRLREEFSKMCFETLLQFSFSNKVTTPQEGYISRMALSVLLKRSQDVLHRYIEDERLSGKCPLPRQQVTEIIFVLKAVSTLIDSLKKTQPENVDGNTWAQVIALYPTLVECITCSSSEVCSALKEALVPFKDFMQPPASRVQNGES
# UniProt Q6ZRI6: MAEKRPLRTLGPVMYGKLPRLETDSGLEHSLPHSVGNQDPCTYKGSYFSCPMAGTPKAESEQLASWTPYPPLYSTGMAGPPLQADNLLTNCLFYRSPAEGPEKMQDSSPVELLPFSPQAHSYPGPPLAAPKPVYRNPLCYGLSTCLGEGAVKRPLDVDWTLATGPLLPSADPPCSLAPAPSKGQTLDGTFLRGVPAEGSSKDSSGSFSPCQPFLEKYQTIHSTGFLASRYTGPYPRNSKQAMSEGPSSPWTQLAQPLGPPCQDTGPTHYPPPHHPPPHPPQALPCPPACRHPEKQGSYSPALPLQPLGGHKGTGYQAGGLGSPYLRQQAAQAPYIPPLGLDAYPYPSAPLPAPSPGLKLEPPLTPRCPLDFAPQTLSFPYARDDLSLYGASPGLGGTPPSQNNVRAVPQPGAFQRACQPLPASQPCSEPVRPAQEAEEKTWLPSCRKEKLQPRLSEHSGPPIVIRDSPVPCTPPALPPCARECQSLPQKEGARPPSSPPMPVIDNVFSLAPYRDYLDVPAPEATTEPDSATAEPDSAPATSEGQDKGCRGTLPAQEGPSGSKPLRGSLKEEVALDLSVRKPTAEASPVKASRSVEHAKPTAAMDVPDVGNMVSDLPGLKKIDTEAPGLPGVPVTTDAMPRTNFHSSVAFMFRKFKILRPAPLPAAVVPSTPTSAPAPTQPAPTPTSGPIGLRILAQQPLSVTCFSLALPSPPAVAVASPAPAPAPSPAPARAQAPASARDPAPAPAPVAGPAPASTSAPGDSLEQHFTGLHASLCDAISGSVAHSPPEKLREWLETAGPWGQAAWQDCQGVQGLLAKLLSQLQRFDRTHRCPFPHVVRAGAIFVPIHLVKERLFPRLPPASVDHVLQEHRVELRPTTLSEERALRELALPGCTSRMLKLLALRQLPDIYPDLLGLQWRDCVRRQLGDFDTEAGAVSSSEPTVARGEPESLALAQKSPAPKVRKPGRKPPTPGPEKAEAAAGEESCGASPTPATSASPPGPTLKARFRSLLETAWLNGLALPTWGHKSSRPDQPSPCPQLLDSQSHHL
# UniProt Q7RTV0, whole entry, looked up: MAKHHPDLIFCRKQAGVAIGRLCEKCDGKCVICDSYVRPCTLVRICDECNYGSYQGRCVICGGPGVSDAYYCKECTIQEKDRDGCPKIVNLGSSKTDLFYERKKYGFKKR
# ± gives the standard deviation of the averaged measurements. The entries are a selection whose mix differs from that of the whole data set. Most entries show no effect beyond the scatter of the controls.
# Compound: Nc1ncnc2c1ncn2[C@@H]1O[C@H](COP(=O)(O)OP(=O)(O)NP(=O)(O)O)[C@@H](O)[C@H]1O [adenylyl imidodiphosphate]
# Assay: NP40-soluble protein abundance relative to vehicle (solubility fold change) (ratio); higher = more soluble protein in presence of AMP-PNP
# Method in brief: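 Across three independent experiments, values are fold changes against the detergent-processed vehicle for each replicate, based on vsn-normalised intensities. The samples were Jurkat crude lysate treated with eight concentrations (0.1 to 10 mM) for 10 min at room temperature and then 3 min at 37 °C. Lysate was solubilised with 0.8% NP40 and benzonase, ultracentrifuged, and the supernatant analysed by TMT-labelled LC-MS/MS.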
Target,NP40-soluble protein abundance (concentration: 0.1mM),NP40-soluble protein abundance (concentration: 0.5mM)
UniProt Q7L2E3-2,1.05 ± 0.014,1.03 ± 0.027
UniProt Q6NS38 and related entries,0.981 ± 0.0085,1.02 ± 0.037
UniProt Q5VIR6-4,1.02 ± 0.024,1.05 ± 0.041
UniProt Q66PJ3 and related entries,1.01 ± 0.043,1.02 ± 0.047
NFXL1 (UniProt Q6ZNB6),0.973 ± 0.047,0.948 ± 0.013
UniProt Q63HQ0,0.9548 ± 0.001,0.957 ± 0.011
UniProt Q6GQQ9 and related entries,0.9867 ± 0.0053,1.01 ± 0.021
CHMP1B (UniProt Q7LBR1),0.969 ± 0.046,1.03 ± 0.083
UniProt Q5VZE5,0.998 ± 0.028,1.03 ± 0.028
UniProt Q68CZ6,1 ± 0.046,0.999 ± 0.027
UniProt Q6P2H3 and related entries,0.991 ± 0.018,0.988 ± 0.039
ELMSAN1 (UniProt Q6PJG2),1.015 ± 0.0041,1.01 ± 0.024
UniProt Q6ZVM7 and related entries,0.983 ± 0.042,0.983 ± 0.033
FASTKD5 (UniProt Q7L8L6),0.9842 ± 0.0066,0.971 ± 0.012
Q5VYH9 and related entries (UniProt Q9HBG7),1 ± 0.055,0.976 ± 0.022
SDHAF4 (UniProt Q5VUM1),0.985 ± 0.028,0.9811 ± 0.0076
ANKRD54 (UniProt Q6NXT1),0.974 ± 0.041,0.962 ± 0.013
UniProt Q6IE81 and related entries,1.01 ± 0.042,1.02 ± 0.027
UniProt Q6P444,1.03 ± 0.013,1.01 ± 0.018
UniProt Q7Z5G4 and related entries,1.05 ± 0.0075,1 ± 0.048
UniProt Q6NT76 and related entries,1 ± 0.027,1 ± 0.05

Target,NP40-soluble protein abundance (concentration: 0.1mM),NP40-soluble protein abundance (concentration: 0.5mM)
HEATR6 (UniProt Q6AI08),1.01 ± 0.038,1.02 ± 0.022
UniProt Q6V1X1 and related entries,0.977 ± 0.047,0.953 ± 0.098
MBLAC2 (UniProt Q68D91),1 ± 0.047,0.994 ± 0.061
Q5W125 and related entries (UniProt Q9NWW6),0.9741 ± 0.0059,0.98 ± 0.013
UniProt Q7Z434 and related entries,0.988 ± 0.014,0.98 ± 0.018
UniProt Q6PCB7 and related entries,1.01 ± 0.054,1.01 ± 0.028
UniProt Q6PIW4 and related entries,0.9764 ± 0.0044,0.966 ± 0.018
SMYD5 (UniProt Q6GMV2),1.01 ± 0.03,0.981 ± 0.046
UniProt Q6GMV3,0.963 ± 0.041,0.99 ± 0.062
UniProt Q7L8W6,1.01 ± 0.039,0.98 ± 0.045
UniProt Q7Z3C6 and related entries,1 ± 0.043,1 ± 0.016
UniProt Q7L266 and related entries,0.976 ± 0.041,0.996 ± 0.04
DHX57 (UniProt Q6P158),1 ± 0.028,0.997 ± 0.015
UniProt Q7Z5L9 and related entries,1.01 ± 0.028,0.989 ± 0.038
UniProt Q6YP21 and related entries,1.03 ± 0.018,0.986 ± 0.086
UniProt Q7L9L4,1.03 ± 0.057,1.05 ± 0.075
PACS1 (UniProt Q6VY07),0.999 ± 0.026,0.997 ± 0.021
ATAD2 (UniProt Q6PL18),1.01 ± 0.051,0.97 ± 0.035
UniProt Q7L5D6,1.05 ± 0.066,1.05 ± 0.12
UniProt Q6UXB8 and related entries,1.02 ± 0.038,1.03 ± 0.047
ARHGAP11A (UniProt Q6P4F7),1.043 ± 0.0085,0.988 ± 0.031

Target,NP40-soluble protein abundance (concentration: 0.1mM),NP40-soluble protein abundance (concentration: 0.5mM)
UniProt Q6R327 and related entries,1.02 ± 0.043,0.9898 ± 0.0068
UniProt Q6RFH5 and related entries,1 ± 0.017,1 ± 0.025
UniProt Q6N043 and related entries,1.01 ± 0.012,1.036 ± 0.01
UniProt Q6KC79 and related entries,0.989 ± 0.023,1.02 ± 0.031
UniProt Q6STE5 and related entries,1.02 ± 0.027,0.9996 ± 0.0073
TAF3 (UniProt Q5VWG9),1.01 ± 0.044,1.01 ± 0.033
MRPL14 (UniProt Q6P1L8),1.01 ± 0.033,1.01 ± 0.046
TTC21B (UniProt Q7Z4L5),1.017 ± 0.0068,1.01 ± 0.014
Q5VVD7 and related entries (UniProt Q8IWE5),0.984 ± 0.027,0.988 ± 0.02
UniProt Q7L5N7 and related entries,1.01 ± 0.013,1.02 ± 0.025
PHLDB3 (UniProt Q6NSJ2),1.02 ± 0.015,1.03 ± 0.024
TTC37 (UniProt Q6PGP7),0.849 ± 0.069,0.813 ± 0.057
NXN (UniProt Q6DKJ4),1 ± 0.027,0.9985 ± 0.0053
UniProt Q7Z3U7 and related entries,0.994 ± 0.067,0.992 ± 0.053
UniProt Q6ZRI6 and related entries,1 ± 0.0051,0.9868 ± 0.007
MEPCE (UniProt Q7L2J0),1 ± 0.021,1.03 ± 0.064
UniProt Q6P996 and related entries,1 ± 0.013,1 ± 0.016
UniProt Q7Z2Z2,1.011 ± 0.0082,1.014 ± 0.0078
UniProt Q68CP9 and related entries,1.05 ± 0.014,1.02 ± 0.035
UniProt Q7RTV0,1.02 ± 0.083,1.03 ± 0.056

# Full records, quoted from the list. Values in the order: NP40-soluble protein abundance (concentration: 0.1mM)	NP40-soluble protein abundance (concentration: 0.5mM)
# MBLAC2 (UniProt Q68D91) reads 1 ± 0.047	0.994 ± 0.061
# UniProt Q7Z5L9 and related entries reads 1.01 ± 0.028	0.989 ± 0.038
